Laboratory results taken from PMC7954794, “Protein context shapes the specificity of SH3 domain-mediated interactions in vivo” (Nature Communications, 2021).
No dose or concentration is given here for some results.

B1: YGR238C (protein, UniProt P50090 1-882, looked up)
Kelch repeat-containing …: MVPFKLTNKVPTDTGPSLISAQSVPRPIVFMDNRNNTRIVTPTLPPNQHRGISGASTALPWSPESKNTGKYIWNRVKLKNSPFPRYRHSSSFIVTNDNRIFVTGGLHDQSVYGDVWQIAANADGTSFTSKRIDIDQNTPPPRVGHASTICGNAYVVFGGDTHKLNKNGLLDDDLYLFNINSYKWTIPQPIGRRPLGRYGHKISIIASNPMQTKLYLFGGQVDETYFNDLVVFDLSSFRRPNSHWEFLEPVGDLPPPLTNHTMVAYDNKLWVFGGETPKTISNDTYRYDPAQSEWSKVKTTGEKPPPIQEHASVVYKHLMCVLGGKDTHNAYSNDVYFLNLLSLKWYKLPRMKEGIPQERSGHSLTLMKNEKLLIMGGDKTDYASPNIHDLQTSETDQGEGTLLYTLDLSSLNELCPGIMCESLHAGESFSNSLSGGFTPSKSTESENQEIINILTPRLPDSKVLSYNDIDEGAGSYSSALDDKAFERKSDREEKKPQSSKVDSSINKESPGTGIKVSKKNFPVLRGLTVDSEEYGSSSYKDTSCQKGIPKNLFDDLNLNLQTLRLEAQQKELETARHISQLEKEVQRLMVIKEASKDSNFQTARLKNLEIQKTFLESRINDLKNLLMVKLSQASKLCDQITIQNNGLKTCSEHVTIKRDIIDLENKCDVLKRQNEILVNNMQKITPELHTYLNESSCYLGKLLKSYPTSARPPSSEKDNQIYEKDSLNKIEKVINEMHETVRAKEKLHLETQKLNDERDSLRANLLDNNNKLDALRKLSDGSSKSMDLTKKAIHLSQSELEKYRKNNDDLQKEIDRIKTEQAEQDDKQEQRGAITHGNFDAFHRMKINNLKAELYMSKENRDSLKDELLALKKKLYTLEQKK
B2: YLR332W (protein, UniProt P36027 26-376, looked up)
Cell wall integrity sensor …: QFFVQSSSSNSSAVSTARSSVSRVSSSSSILSSSMVSSSSADSSSLTSSTSSRSLVSHTSSSTSIASISFTSFSFSSDSSTSSSSSASSDSSSSSSFSISSTSATSESSTSSTQTSTSSSSSLSSTPSSSSSPSTITSAPSTSSTPSTTAYNQGSTITSIINGKTILSNHYTTVTYTPSATADSSNKSKSSGLSKKNRNIVIGCVVGIGVPLILVILALIYMFCIQSSRTDFIDSDGKVVTAYRANKFTKWWYMLLGKKVSDEYHSDSPLGGSASSAGGLDLDEADDVMEQSSLFDVRIRDSDSVLPNANTADHNNTNSGGEPINSSVASNDIIEEKFYDEQGNELSPRNY
B3: YHR158C (protein, UniProt P38853 1-1164, looked up)
Kelch repeat-containing …: MAGFSFAKKFTHKKHGKTPSDASISDQSREASLSTPPNEKFFTKQETPQKGRQFSQGYHSNVNKTSSPPMFARKQVSESRIQPSAVPPQQRNVSGPSTTLHKQLSKQREYTVWNRIKLQNSPFPRYRHVASAYVTDKNQIYVIGGLHDQSVYGDTWILTAFDNATRFSTTTIDISEATPPPRVGHAAVLCGNAFVVFGGDTHKVNKEGLMDDDIYLLNINSYKWTVPAPVGPRPLGRYGHKISIIATTQMKTKLYVFGGQFDDTYFNDLAVYDLSSFRRPDSHWEFLKPRTFTPPPITNFTMISYDSKLWVFGGDTLQGLVNDVFMYDPAINDWFIIDTTGEKPPPVQEHATVVYNDLMCVVGGKDEHDAYLNSVYFLNLKSRKWFKLPVFTAGIPQGRSGHSLTLLKNDKILIMGGDKFDYARVEEYDLHTSDIDMQRGTIVYTLDLARIKDLCPGVMDVPTDTPTPRNGNLDLATPVTPTSHQTKNMNVPISAAPLASAPSPAPKDFSDADRLNREVHNRNVSTEHQNQSHPVNSESHLIAEPNILTPYVPSESSQTPVMKITSNKPFDTPTIQKEPDLSETMDPTVGNQRIPSSIYGDNLTPANQIKNNSPILETLPSNEIKTPQNGNIEEIKHLPDADEKIDSTTTFDQEINGDKLGTSSMSKVEEDGNVADEDDEIGVAQMASSPSKDQFKIKHYNESSELSQNNTEIDKLSEPVDITIKKSDTAGHDSANHVIDASDEKNVSPMGDVPTDTKNEEASVPINRDATTEVVDRALFEKLRSELQSLKELTHEKALEAGAHIKELETELWQLKSQKNSGTTKEIDELDSVRLQSKCEILEADNHSLEDKVNELEELVNSKFLDIENLNEVIQFQNEKIKSLELEPNYKEKLEELQIEHENLSRENERLKNESKQHNEDIINNVANYSSQLGSLISHWKENRANSSFLESSSSLISVSDENGEKTVGEPYGDQSRHHRVVINKLTNRLDDLLERSQELTISKEKLSSEYHALKMEHSSLSQDVLVKENEIKKIQNDYKESISSMDSASKALMVSQRELEKYKSLNKKLIDELDELKFKNGVCSENFENGLRSTEESSNNVKNSNSIRENQFNIKINDLKAELFITNQERDDLKSEVLELKKRLLNLENNTKQVNEDADSDLL
B4: YIL033C (protein, UniProt P07278 2-416, looked up)
cAMP-dependent protein kinase …: VSSLPKESQAELQLFQNEINAANPSDFLQFSANYFNKRLEQQRAFLKAREPEFKAKNIVLFPEPEESFSRPQSAQSQSRSRSSVMFKSPFVNEDPHSNVFKSGFNLDPHEQDTHQQAQEEQQHTREKTSTPPLPMHFNAQRRTSVSGETLQPNNFDDWTPDHYKEKSEQQLQRLEKSIRNNFLFNKLDSDSKRLVINCLEEKSVPKGATIIKQGDQGDYFYVVEKGTVDFYVNDNKVNSSGPGSSFGELALMYNSPRAATVVATSDCLLWALDRLTFRKILLGSSFKKRLMYDDLLKSMPVLKSLTTYDRAKLADALDTKIYQPGETIIREGDQGENFYLIEYGAVDVSKKGQGVINKLKDHDYFGEVALLNDLPRQATVTATKRTKVATLGKSGFQRLLGPAVDVLKLNDPTRH
B5: YER149C (protein, UniProt P40091 1-420, looked up)
Protein PEA2: MHKFDLELSRRANPLLFSAERYEEYPLKYDELKQYLLSQNPSHPHHNSRPYTSIDYFDYLLYRSKNDESEIDLDKKLVSEFALYYVQKEHLNSDDLNPTLNELLKLQPKSADWYEMMLRILESINTTGIDQLTKENNNSFPNSKRARSSTNMGGTDKFNKGAYHTDKADDDKNEILQELTSFLMSNSIQKGIDIKPIPLDDPVKFLKNGINSILDTCVSLEKNTSSPPISPNAAAIQEEDSSKKLEELETAFSDLQLAHNFLTKQFENDRAEYVQDIEKLTRTNRELQDKLLNNHSNLSKTEKKLHELEQENKELEKANNKLNSSRHNFGMSSPASSPVTWDPSSPSSVGSPTSGSGSRSLSIMTSEFKKVLTSTQRKYEKELSDEREHRFKLERELALLKNAEANTSLALNRDDPPDML
B6: YHR064C (protein, UniProt P38788 1-538, looked up)
Ribosome-associated complex …: MSSPVIGITFGNTSSSIAYINPKNDVDVIANPDGERAIPSALSYVGEDEYHGGQALQQLIRNPKNTIINFRDFIGLPFDKCDVSKCANGAPAVEVDGKVGFVISRGEGKEEKLTVDEVVSRHLNRLKLAAEDYIGSAVKEAVLTVPTNFSEEQKTALKASAAKIGLQIVQFINEPSAALLAHAEQFPFEKDVNVVVADFGGIRSDAAVIAVRNGIFTILATAHDLSLGGDNLDTELVEYFASEFQKKYQANPRKNARSLAKLKANSSITKKTLSNATSATISIDSLADGFDYHASINRMRYELVANKVFAQFSSFVDSVIAKAELDPLDIDAVLLTGGVSFTPKLTTNLEYTLPESVEILGPQNKNASNNPNELAASGAALQARLISDYDADELAEALQPVIVNTPHLKKPIGLIGAKGEFHPVLLAETSFPVQKKLTLKQAKGDFLIGVYEGDHHIEEKTLEPIPKEENAEEDDESEWSDDEPEVVREKLYTLGTKLMELGIKNANGVEIIFNINKDGALRVTARDLKTGNAVKGEL
B7: YKL117W (protein, UniProt P28707 2-216, looked up)
Co-chaperone protein SBA1: SDKVINPQVAWAQRSSTTDPERNYVLITVSIADCDAPELTIKPSYIELKAQSKPHVGDENVHHYQLHIDLYKEIIPEKTMHKVANGQHYFLKLYKKDLESEYWPRLTKEKVKYPYIKTDFDKWVDEDEQDEVEAEGNDAAQGMDFSQMMGGAGGAGGAGGMDFSQMMGGAGGAGSPDMAQLQQLLAQSGGNLDMGDFKENDEEDEEEEIEPEVKA

What was measured:
Format in all cases: cell-based, Saccharomyces cerevisiae
Parameters in all cases: key: 0: SH3-independent; 1: SH3-dependent PPIs; 2: SH3-inhibited PPIs
BUD14 = test: DHFR-PCA on solid medium, bait BUD14 (Fig. 1B); details: bait BUD14, label = prey
From the text: (§1) Supplement 41467_2021_21873_MOESM8_ESM.xlsx, sheet "Fig1B" | column: medsize; medrep; Ratio; Score

BOI1 = test: DHFR-PCA on solid medium, bait BOI1 (Fig. 1B); details: bait BOI1, label = prey
From the text: as §1

BBC1 = test: DHFR-PCA on solid medium, bait BBC1 (Fig. 1B); details: bait BBC1, label = prey
From the text: as §1

BOI2 = test: DHFR-PCA on solid medium, bait BOI2 (Fig. 1B); details: bait BOI2, label = prey
From the text: as §1

| Molecule | Score (BUD14) | Score (BOI1) | Score (BBC1) | Score (BOI2) |
| --- | --- | --- | --- | --- |
| B1 | 0 |  |  |  |
| B2 | 0 | 0 | 0 | 0 |
| B3 | 0 |  |  |  |
| B4 | 0 | 0 | 0 | 0 |
| B5 | 1 |  |  |  |
| B6 | 1 |  | 0 | 0 |
| B7 | 0 |  | 1 |  |
